Our source for the cell number change and AC50 values is PubChem BioAssay AID2685 (National Center for Advancing Translational Sciences (NCATS), 2010).

The list shows a part of the results. Further columns of the screen follow, without active or inactive calls. Compounds called inactive in the main read-out are mostly missing here. The note in brackets gives the kind of curve behind each potency; many fits are weak.

The assay is described as follows: qHTS Assay for Lipid Storage Modulators in Drosophila S3 Cells.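 On cell number change: cells counted by Cell Tracker Red CMTPX staining in the red channel.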 Conditions: BODIPY lipid droplet fluorescence, 18-24 h; for cell number change: measured here: cell count max response, cells fed with added oleic acid. The procedure, abridged: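 Drosophila S3 cells got compounds at several concentrations plus oleic acid (400 uM solution). Laser-scanning cytometry with 488 nm excitation read lipid droplets at 500-530 nm and cells at 575-640 nm. Percent activity was relative to 20 uM Triacsin C.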
(Quantitative high-throughput screening tests each substance at several concentrations.)

Setting [1] is: measured here: lipid fluorescence (Fed channel) AC50, cells fed with added oleic acid.
Where [2] appears, read: measured here: cell number channel AC50, cells fed with added oleic acid.

As a reminder, the AC50 is the concentration at which the activity in the assay is half-maximal. A higher AC50 goes with activity only at high concentration. Take `CCOC(=O)N1CCC(NC(=O)C2CCN(C(=O)N3CC(C)Oc4ccccc43)CC2)CC1` (stereo not given): the cell number change is -2.19%. Besides, under setting [1], the half-maximal activity concentration (AC50) was 6.51 µM [falling, single point].

For the compound `O=C(COC(=O)Cc1n[nH]c(=O)c2ccccc12)NNC(=O)c1ccc(Cl)cc1`, the cell number change is -6.87%. Further, the AC50 under setting [1] is 1.84 µM [rising, partial curve, poor fit].

Regarding `Cc1ccc(-c2nc3ncccc3o2)cc1NC(=O)c1cc2ccccc2o1`, the cell number change turned out to be 13%. Further, the half-maximal activity concentration (AC50) under setting [1] is 0.13 µM [rising, full curve, poor fit].

As for `COC(=O)c1ccccc1NC(=O)C(C)c1ccc([N+](=O)[O-])cc1` (stereo not given), the cell number change came out at 16.5%.

For the compound `Cc1nc2ccccc2nc1OCC(=O)Nc1ccc(F)cc1`, the cell number change was found to be 10.5%. Also, the concentration at half-maximal activity (AC50) under setting [2] is 0.00461 µM [rising, full curve, poor fit].

Take `O=[N+]([O-])c1ccc(-c2nc(Nc3ccc(O)cc3)c3ccccc3n2)cc1`: the cell number change was -84.2%. Under setting [2], the AC50 is 23.1 µM [falling, partial curve]. Moreover, under setting [1], the AC50 is 16.4 µM [falling, single point].

For `Cc1c(C(=O)O)oc2c1ccc1ccccc12`, the cell number change was -61.7%. The AC50 under setting [2] was 29.1 µM [falling, single point].

Take `O=C(Cc1coc2ccc3ccccc3c12)NC1CCCc2ccccc21` (stereo not given): the cell number change was -17.4%. For the same compound, under setting [1], the concentration at half-maximal activity (AC50) was 18.4 µM [falling, partial curve].

Turning to `CCn1cc(CNC(=O)C2CCC(=O)N(Cc3ccc(Cl)cc3)C2)cn1` (stereo not given), the cell number change was 17.5%. Also, the AC50 under setting [1] was 0.58 µM [falling, single point].

Turning to `O=C1CN(C(=O)COC(=O)/C=C/c2ccc(S(=O)(=O)N3CCOCC3)cc2)c2ccccc2N1`, the cell number change is -1.02%.

Consider `Cc1ccc(-c2nnc(SCC(=O)Nc3ccc4c(c3)oc3ccccc34)n2C)c(Cl)c1`, for which the concentration at half-maximal activity (AC50) under setting [2] is 1.64 µM [rising, partial curve] and the AC50 under setting [1] is 2.31 µM [rising, partial curve].

`CCCNC(=O)N1CCC(c2ccc3c(c2)OCO3)CC1`: the cell number change was -18.9%. In addition, the concentration at half-maximal activity (AC50) under setting [1] is 32.6 µM [falling, single point].

On to `CC1(C)C2CCC1(CS(=O)(=O)Nc1ccc(S(=O)(=O)N3CCCCC3)cc1)C(=O)C2` (stereo not given), for which the cell number change was -16.4%. Moreover, under setting [1], the half-maximal activity concentration (AC50) was 0.651 µM [falling, full curve].

As for `COc1ccccc1CN1CC(C(=O)NCc2cccc(C)n2)CCC1=O` (stereo not given), the cell number change is -6.49%.

In the case of `COc1ccccc1NC(=O)CN(c1ccc(C23CC4CC(CC(C4)C2)C3)cc1)S(C)(=O)=O`, the cell number change amounted to 11.7%. Under setting [1], the half-maximal activity concentration (AC50) was 0.103 µM [falling, full curve, poor fit].

On to `COc1cc(=O)n(C)c2c(O)cccc12`, for which the cell number change is 0.265%. Besides, the half-maximal activity concentration (AC50) under setting [1] is 0.0731 µM [falling, full curve, poor fit].

Take `CCOc1ccc(NC(=O)Cn2nnc(-c3ccccc3NC(=O)CC)n2)cc1`: the cell number change is -14.9%. Further, under setting [1], the AC50 is 6.51 µM [rising, single point].

In the case of `Cc1onc(-c2ccccc2Cl)c1C(=O)N1CCC(Cc2ccccc2)CC1`, the cell number change was -23.6%. In addition, the concentration at half-maximal activity (AC50) under setting [1] was 29.1 µM [falling, single point].

As for `O=C(CSc1nnc(-c2ccco2)o1)Nc1cccc([N+](=O)[O-])c1`, the cell number change was -12.3%. The AC50 under setting [1] was 0.112 µM [falling, full curve, poor fit].

On to `Cc1cccc(C)c1NC(=O)COn1nnc2ccc(C(F)(F)F)cc21`, for which the cell number change was determined as 22.5%. Besides, the AC50 under setting [1] was 2.59 µM [rising, partial curve, poor fit].

As to `Cc1c(OCc2ccccc2)c(=O)ccn1Cc1ccc(F)cc1`, the cell number change is 14%.

As to `CCn1nc(C)cc1-c1n[nH]c(=S)n1N`, the cell number change turned out to be 21.9%. The AC50 under setting [1] is 3.26 µM [falling, partial curve].

`O=C(O)c1cccnc1Sc1ccc(Cl)cc1`: the cell number change was -33.7%. Moreover, the concentration at half-maximal activity (AC50) under setting [2] is 4.61 µM [falling, full curve]. Besides, the concentration at half-maximal activity (AC50) under setting [1] was 4.61 µM [falling, full curve, poor fit].

Turning to `Cc1ccc(S(=O)(=O)N2CCCCC2)cc1NS(=O)(=O)c1ccc(Cl)c(C(=O)O)c1`, the cell number change was -15%.

As for `CC1CN(C(=O)CCC(=O)NCc2ccccn2)c2ccccc2O1` (stereo not given), the cell number change was -8.07%. Under setting [1], the half-maximal activity concentration (AC50) was 4.61 µM [rising, single point].

In the case of `O=C(NCc1ccccn1)C(=O)N/N=C/c1ccccc1O`, the cell number change was -22.2%. The AC50 under setting [1] was 29.1 µM [falling, single point].

Take `O=S(=O)(NCc1ccc2c(c1)OCO2)c1cnc[nH]1`: the cell number change is 0.506%.

As to `O=C(c1ccc2c(c1)OCO2)N(c1ccc(Cl)cc1)C1C=CS(=O)(=O)C1` (stereo not given), the cell number change worked out at 6.88%.

In the case of `Cc1cccc(C(=O)Nc2cccc(C(=O)N/N=C/c3ccncc3)c2)c1`, the cell number change came to 8.17%. Further, the concentration at half-maximal activity (AC50) under setting [1] is 10.3 µM [rising, single point].

Regarding `COc1ccccc1-c1nnn(C/C(N)=N/O)n1`, the cell number change is 63.2%. The concentration at half-maximal activity (AC50) under setting [2] is 29.1 µM [rising, single point]. Besides, the AC50 under setting [1] was 0.731 µM [falling, full curve, poor fit].

For `COC(=O)C1=C(C)Nc2ccc(C)cc2S1`, the cell number change came out at 83.5%. Besides, the AC50 under setting [2] was 2.31 µM [rising, full curve]. Under setting [1], the half-maximal activity concentration (AC50) is 18.4 µM [rising, single point].

As to `CCOc1ccc(C(=O)NC2CCN(C(=O)N3CCCC3)CC2)cc1`, the concentration at half-maximal activity (AC50) under setting [1] was 6.51 µM [falling, single point].

As for `CCN(CC)C(=O)c1[nH]cnc1C(=O)Nc1ccc(OC)cc1`, the cell number change was 9.6%. Moreover, the AC50 under setting [1] was 6.51 µM [rising, full curve, poor fit].

Regarding `COc1cccc(CNC(=O)CCS(=O)(=O)c2ccc3c(c2)CC(C)N3C(=O)C2CC2)c1` (stereo not given), the cell number change worked out at 21.7%. In addition, the half-maximal activity concentration (AC50) under setting [1] is 29.1 µM [rising, single point].

As for `COc1ccc(S(=O)(=O)N2CCC(C(=O)NCCC(=O)NCc3cccc(OC)c3)CC2)cc1`, the cell number change was -10.2%. Under setting [1], the concentration at half-maximal activity (AC50) was 0.58 µM [rising, single point].

Consider `CC1CCCCC1NC(=O)c1cc2ccccc2o1` (stereo not given), for which the cell number change was determined as 14.1%. The AC50 under setting [1] is 16.4 µM [rising, partial curve].

`CN(C)C(=O)CN1CCN(Cc2nc(CC3CC3)no2)CC1`: the cell number change was -12.9%. In addition, under setting [1], the concentration at half-maximal activity (AC50) is 3.26 µM [falling, full curve].

With `Cc1ccc(-n2nc3c(=O)n(C(C)C(=O)NCc4ccc(Cl)cc4)nc(C)c3c2C)cc1` (stereo not given), the cell number change was 8.73%. Further, under setting [1], the concentration at half-maximal activity (AC50) was 6.51 µM [rising, single point].

For `CC(=O)c1ccc(OC(=O)N2CCOCC2)cc1`, the cell number change turned out to be 0.88%.

Consider `CN(C)Cc1c(O)ccc2c3c(c(=O)oc12)CCCCC3`, for which the cell number change is -0.542%. For the same compound, the concentration at half-maximal activity (AC50) under setting [1] is 1.84 µM [falling, partial curve].
